This is one part of the list.
Experiments:
Test in all cases: log2 fold change, soluble protein after heating vs DMSO (PISA); higher = thermal stabilisation; K562 cells, 10 uM, 30 min; active = over 0.2 and 3.5 SD of the protein, either way, in both replicates (recomputed)
saracatinib = compound: CN1CCN(CCOc2cc(OC3CCOCC3)c3c(Nc4c(Cl)ccc5c4OCO5)ncnc3c2)CC1 [saracatinib]
Outline: (§1)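 K562 cells at 2×10^6 cells/mL were treated for 30 min with 10 μM compound, and aliquots were heated for 3 min over 48°C-58°C before pooling. Extraction used PBS with 0.5% NP-40 at 4°C, and soluble protein was the supernatant after 21,000xg for 90 min, measured by TMTpro 16plex LC-MS/MS with channel sums equalised. Thermal stability values, relative to control samples and from duplicates, are log2 fold changes.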

Amino acid sequences for entries named in this document (tags omitted). A change or cut given only in a name is not applied to a line headed by its entry.
UniProt Q3MIT2: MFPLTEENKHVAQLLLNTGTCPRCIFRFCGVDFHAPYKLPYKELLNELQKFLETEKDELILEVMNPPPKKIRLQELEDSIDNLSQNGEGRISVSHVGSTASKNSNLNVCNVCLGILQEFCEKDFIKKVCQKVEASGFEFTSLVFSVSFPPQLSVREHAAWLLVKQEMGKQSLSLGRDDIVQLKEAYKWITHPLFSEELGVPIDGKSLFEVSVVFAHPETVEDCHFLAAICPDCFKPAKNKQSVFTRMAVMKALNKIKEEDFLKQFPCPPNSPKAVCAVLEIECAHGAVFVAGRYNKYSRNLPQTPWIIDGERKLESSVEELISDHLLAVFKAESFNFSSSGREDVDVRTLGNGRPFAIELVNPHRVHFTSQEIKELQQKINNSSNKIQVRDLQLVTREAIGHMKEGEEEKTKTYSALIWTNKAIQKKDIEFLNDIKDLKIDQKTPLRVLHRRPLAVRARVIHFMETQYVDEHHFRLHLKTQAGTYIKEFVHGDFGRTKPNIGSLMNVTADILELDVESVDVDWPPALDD
UniProt Q9BZE2: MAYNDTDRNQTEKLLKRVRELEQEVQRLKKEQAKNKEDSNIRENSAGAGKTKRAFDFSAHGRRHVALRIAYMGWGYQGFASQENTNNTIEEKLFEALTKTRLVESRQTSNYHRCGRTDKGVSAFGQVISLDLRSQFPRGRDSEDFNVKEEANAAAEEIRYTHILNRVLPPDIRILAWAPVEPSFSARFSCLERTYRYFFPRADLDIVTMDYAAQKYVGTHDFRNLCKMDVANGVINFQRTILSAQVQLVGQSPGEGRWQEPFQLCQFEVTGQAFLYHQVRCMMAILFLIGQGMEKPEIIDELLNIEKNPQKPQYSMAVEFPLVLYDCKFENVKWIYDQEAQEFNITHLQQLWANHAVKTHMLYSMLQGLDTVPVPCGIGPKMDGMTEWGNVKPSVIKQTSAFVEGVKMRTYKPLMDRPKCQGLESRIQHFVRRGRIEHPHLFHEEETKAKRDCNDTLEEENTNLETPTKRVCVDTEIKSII
UniProt P20618: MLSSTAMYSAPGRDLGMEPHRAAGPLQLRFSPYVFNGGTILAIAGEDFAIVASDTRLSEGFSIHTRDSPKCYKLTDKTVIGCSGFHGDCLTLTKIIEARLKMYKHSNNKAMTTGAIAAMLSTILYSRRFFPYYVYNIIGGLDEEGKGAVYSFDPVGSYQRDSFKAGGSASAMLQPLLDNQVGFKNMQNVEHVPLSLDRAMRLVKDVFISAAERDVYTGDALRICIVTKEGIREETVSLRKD
UniProt P61289: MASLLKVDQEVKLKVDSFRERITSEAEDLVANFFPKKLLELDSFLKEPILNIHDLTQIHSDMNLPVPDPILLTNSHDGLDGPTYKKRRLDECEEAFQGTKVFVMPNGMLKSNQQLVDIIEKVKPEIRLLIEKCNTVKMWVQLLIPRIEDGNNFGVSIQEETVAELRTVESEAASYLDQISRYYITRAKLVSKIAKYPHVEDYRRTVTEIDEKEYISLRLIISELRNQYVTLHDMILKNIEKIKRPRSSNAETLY
UniProt O95456: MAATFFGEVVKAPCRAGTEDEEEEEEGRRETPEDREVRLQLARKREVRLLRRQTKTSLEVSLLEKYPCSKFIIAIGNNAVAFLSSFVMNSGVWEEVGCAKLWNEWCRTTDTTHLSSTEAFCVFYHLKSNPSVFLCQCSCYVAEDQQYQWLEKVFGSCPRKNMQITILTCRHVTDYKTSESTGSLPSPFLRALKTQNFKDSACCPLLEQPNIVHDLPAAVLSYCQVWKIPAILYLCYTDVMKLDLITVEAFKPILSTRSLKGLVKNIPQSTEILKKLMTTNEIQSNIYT
UniProt P23219, whole entry, looked up: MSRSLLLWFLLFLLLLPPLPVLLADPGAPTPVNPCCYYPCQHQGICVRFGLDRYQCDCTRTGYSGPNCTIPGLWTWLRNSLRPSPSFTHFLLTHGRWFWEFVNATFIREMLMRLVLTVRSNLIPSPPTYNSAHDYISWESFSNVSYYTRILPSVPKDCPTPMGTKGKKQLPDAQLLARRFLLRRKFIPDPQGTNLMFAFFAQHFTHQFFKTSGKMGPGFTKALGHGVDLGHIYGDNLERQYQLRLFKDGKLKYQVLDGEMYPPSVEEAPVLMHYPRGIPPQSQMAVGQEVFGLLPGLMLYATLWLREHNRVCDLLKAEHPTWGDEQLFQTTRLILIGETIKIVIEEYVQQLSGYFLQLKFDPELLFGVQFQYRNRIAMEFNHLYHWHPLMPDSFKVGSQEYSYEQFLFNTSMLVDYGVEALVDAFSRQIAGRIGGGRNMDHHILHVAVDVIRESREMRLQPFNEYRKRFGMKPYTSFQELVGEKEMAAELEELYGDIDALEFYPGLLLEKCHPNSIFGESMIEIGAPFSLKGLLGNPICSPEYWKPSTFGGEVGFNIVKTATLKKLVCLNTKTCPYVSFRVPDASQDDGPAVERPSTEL
UniProt P25789: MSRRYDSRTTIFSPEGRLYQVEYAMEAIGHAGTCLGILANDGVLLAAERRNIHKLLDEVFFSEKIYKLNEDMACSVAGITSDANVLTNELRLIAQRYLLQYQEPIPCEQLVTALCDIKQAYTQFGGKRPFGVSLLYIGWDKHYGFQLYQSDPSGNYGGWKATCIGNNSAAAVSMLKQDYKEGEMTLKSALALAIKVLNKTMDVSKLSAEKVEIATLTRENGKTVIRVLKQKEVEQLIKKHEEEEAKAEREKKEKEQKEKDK
UniProt P20742, whole entry, looked up: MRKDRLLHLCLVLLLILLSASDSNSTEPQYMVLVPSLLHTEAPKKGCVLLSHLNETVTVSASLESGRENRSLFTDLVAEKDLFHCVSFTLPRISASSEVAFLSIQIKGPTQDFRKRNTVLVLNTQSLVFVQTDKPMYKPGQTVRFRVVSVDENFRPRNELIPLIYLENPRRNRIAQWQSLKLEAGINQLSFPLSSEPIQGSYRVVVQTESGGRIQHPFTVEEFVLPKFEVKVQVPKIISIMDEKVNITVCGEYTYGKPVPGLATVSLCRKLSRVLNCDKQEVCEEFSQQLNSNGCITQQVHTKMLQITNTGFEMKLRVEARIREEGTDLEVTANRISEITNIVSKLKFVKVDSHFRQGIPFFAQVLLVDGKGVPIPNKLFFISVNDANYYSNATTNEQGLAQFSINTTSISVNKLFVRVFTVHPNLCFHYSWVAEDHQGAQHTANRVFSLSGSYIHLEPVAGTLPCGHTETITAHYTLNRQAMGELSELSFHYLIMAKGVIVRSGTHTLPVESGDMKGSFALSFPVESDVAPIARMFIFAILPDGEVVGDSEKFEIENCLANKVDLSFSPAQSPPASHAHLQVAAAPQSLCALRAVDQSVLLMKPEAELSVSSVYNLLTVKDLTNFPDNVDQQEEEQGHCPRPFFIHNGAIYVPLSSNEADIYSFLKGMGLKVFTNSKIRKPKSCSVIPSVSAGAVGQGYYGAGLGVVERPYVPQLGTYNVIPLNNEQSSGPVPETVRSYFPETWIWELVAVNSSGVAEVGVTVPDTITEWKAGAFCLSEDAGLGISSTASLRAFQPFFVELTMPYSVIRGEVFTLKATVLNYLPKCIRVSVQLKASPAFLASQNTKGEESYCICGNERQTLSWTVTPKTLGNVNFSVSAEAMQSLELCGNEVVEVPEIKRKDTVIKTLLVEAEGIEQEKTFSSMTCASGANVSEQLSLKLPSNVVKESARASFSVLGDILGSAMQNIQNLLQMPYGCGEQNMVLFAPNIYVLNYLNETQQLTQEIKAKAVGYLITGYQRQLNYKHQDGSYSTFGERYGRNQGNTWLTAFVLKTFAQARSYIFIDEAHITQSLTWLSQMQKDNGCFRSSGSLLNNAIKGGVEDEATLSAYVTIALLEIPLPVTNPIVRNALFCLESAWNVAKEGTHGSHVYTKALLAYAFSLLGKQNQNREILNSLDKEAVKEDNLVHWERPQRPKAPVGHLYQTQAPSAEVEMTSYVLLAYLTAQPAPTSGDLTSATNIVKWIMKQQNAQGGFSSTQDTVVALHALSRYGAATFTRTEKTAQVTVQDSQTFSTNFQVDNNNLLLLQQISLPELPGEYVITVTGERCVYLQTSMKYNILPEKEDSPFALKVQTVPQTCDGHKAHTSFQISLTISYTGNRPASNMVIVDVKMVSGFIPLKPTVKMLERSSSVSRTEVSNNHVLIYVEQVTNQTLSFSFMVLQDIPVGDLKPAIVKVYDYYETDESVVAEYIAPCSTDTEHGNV
UniProt Q96I23: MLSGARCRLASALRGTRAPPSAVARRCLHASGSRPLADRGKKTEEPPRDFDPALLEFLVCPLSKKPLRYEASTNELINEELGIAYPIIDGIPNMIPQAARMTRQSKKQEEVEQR
UniProt Q9H0K6: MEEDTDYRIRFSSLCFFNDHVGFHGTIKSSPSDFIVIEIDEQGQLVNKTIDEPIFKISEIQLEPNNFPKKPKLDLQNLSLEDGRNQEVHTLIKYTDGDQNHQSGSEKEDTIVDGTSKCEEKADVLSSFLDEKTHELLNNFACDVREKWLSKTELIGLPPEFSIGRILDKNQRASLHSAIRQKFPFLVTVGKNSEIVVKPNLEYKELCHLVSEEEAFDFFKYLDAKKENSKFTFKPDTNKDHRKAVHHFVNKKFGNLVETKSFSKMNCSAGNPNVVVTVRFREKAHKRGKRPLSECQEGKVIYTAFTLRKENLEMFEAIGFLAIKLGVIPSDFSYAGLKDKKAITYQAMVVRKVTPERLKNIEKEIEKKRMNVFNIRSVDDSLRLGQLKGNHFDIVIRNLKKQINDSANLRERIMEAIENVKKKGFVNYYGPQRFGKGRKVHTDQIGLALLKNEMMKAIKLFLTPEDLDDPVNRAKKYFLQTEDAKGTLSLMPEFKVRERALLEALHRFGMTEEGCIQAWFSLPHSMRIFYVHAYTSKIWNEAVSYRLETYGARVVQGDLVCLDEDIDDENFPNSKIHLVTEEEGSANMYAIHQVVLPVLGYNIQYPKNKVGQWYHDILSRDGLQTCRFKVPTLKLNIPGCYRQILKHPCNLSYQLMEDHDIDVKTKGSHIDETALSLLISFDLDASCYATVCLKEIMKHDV
UniProt Q969U7: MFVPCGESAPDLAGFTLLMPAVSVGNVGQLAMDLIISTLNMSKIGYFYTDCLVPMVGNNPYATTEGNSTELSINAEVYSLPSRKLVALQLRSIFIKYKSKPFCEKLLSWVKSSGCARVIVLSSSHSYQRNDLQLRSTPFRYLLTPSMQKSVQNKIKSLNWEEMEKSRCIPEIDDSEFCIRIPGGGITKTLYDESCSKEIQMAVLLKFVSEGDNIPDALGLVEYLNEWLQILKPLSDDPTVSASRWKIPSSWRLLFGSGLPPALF
UniProt Q15269: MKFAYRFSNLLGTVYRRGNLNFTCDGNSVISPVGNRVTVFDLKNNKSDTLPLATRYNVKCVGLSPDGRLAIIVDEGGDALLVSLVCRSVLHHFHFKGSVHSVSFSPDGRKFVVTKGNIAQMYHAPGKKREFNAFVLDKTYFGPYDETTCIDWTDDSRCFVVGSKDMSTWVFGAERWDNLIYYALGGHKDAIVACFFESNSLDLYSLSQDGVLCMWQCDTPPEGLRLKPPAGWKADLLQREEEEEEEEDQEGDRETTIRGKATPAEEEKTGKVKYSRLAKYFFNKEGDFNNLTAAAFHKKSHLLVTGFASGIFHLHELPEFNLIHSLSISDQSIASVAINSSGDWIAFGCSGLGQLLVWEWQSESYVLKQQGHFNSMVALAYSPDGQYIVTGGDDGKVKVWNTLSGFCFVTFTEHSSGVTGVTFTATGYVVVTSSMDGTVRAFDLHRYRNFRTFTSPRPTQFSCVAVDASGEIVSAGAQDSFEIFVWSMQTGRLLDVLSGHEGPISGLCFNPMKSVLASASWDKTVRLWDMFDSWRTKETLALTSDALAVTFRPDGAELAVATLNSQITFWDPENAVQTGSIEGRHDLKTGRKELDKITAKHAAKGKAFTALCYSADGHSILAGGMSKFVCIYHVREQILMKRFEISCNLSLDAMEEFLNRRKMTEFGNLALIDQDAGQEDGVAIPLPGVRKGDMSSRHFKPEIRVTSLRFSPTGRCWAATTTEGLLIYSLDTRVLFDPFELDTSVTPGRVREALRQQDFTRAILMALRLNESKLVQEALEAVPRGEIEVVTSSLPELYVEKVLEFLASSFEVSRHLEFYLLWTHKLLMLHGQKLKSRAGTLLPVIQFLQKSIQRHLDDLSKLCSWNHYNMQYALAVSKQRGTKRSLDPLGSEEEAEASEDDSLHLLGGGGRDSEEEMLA
UniProt Q9BXR0: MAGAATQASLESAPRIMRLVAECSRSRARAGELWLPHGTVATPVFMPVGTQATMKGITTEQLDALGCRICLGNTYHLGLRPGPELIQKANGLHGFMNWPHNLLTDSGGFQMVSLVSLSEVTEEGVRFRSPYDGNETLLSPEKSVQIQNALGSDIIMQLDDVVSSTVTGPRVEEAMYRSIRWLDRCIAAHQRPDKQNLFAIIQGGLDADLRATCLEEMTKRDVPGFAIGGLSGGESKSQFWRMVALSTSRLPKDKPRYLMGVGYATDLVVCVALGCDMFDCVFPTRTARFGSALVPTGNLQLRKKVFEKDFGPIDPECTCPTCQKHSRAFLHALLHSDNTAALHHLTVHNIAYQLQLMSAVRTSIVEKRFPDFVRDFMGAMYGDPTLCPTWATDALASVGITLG

sotrastaurin = compound: CN1CCN(c2nc(C3=C(c4c[nH]c5ccccc45)C(=O)NC3=O)c3ccccc3n2)CC1 [sotrastaurin]
Outline: as §1

alvocidib = compound: CN1CC[C@H](c2c(O)cc(O)c3c(=O)cc(-c4ccccc4Cl)oc23)[C@H](O)C1 [alvocidib]
Outline: as §1

Tubastatin A = compound: CN1CCc2c(c3ccccc3n2Cc2ccc(C(=O)NO)cc2)C1 [Tubastatin A]
Outline: as §1

[1] = compound: CNC(=O)C1=CC=CC=C1NC2=NC(=NC=C2Cl)NC3=C(C=C(C=C3)N4CCOCC4)OC
Outline: as §1

defactinib = compound: CNC(=O)c1ccc(Nc2ncc(C(F)(F)F)c(NCc3nccnc3N(C)S(C)(=O)=O)n2)cc1 [defactinib]
Outline: as §1

rucaparib = compound: CNCc1ccc(-c2[nH]c3cc(F)cc4c3c2CCNC4=O)cc1 [rucaparib]
Outline: as §1

[2] = compound: CNc1nc(-c2ccc3c(N)n[nH]c3c2)cc(N2C[C@@H](C(=O)NC3CCCCC3)CC[C@H]2C)n1
Outline: as §1

encorafenib = compound: COC(=O)N[C@@H](C)CNc1nccc(-c2cn(C(C)C)nc2-c2cc(Cl)cc(NS(C)(=O)=O)c2F)n1 [encorafenib]
Outline: as §1

[3] = compound: COC(=O)[C@H](CCSC)NC(=O)C1=C(C=C(C=C1)NC[C@H](CS)N)C2=CC=CC=C2
Outline: as §1

[4] = compound: COC1=CC=C(C=C1)CN2C=CC3=C2C=C(C=C3)C(=O)NO
Outline: as §1

filanesib = compound: CON(C)C(=O)N1N=C(c2cc(F)ccc2F)S[C@@]1(CCCN)c1ccccc1 [filanesib]
Outline: as §1

zotarolimus = compound: CO[C@H]1C[C@@H]2CC[C@@H](C)[C@@](O)(O2)C(=O)C(=O)N2CCCC[C@H]2C(=O)O[C@H]([C@H](C)C[C@@H]2CC[C@H](n3cnnn3)[C@H](OC)C2)CC(=O)[C@H](C)/C=C(\C)[C@@H](O)[C@@H](OC)C(=O)[C@H](C)C[C@H](C)/C=C/C=C/C=C/1C [zotarolimus]
Outline: as §1

idasanutlin = compound: COc1cc(C(=O)O)ccc1NC(=O)[C@@H]1N[C@@H](CC(C)(C)C)[C@](C#N)(c2ccc(Cl)cc2F)[C@H]1c1cccc(Cl)c1F [idasanutlin]
Outline: as §1

alisertib = compound: COc1cc(Nc2ncc3c(n2)-c2ccc(Cl)cc2C(c2c(F)cccc2OC)=NC3)ccc1C(=O)O [alisertib]
Outline: as §1

[5] = compound: COc1cc2nc(-c3cc(F)ccc3O)nc(N[C@@H]3CNC[C@H]3C(C)(C)O)c2cc1OC
Outline: as §1

gefitinib = compound: COc1cc2ncnc(Nc3ccc(F)c(Cl)c3)c2cc1OCCCN1CCOCC1 [gefitinib]
Outline: as §1

[6] = compound: COc1cccc2cc(-c3nc([C@H]4CC[C@H](C(=O)O)CC4)n4ncnc(N)c34)[nH]c12
Outline: as §1

lapatinib = compound: CS(=O)(=O)CCNCc1ccc(-c2ccc3ncnc(Nc4ccc(OCc5cccc(F)c5)c(Cl)c4)c3c2)o1 [lapatinib]
Outline: as §1

pictilisib = compound: CS(=O)(=O)N1CCN(Cc2cc3nc(-c4cccc5[nH]ncc45)nc(N4CCOCC4)c3s2)CC1 [pictilisib]
Outline: as §1

Measured: log2 fold change

PUS10 (UniProt Q3MIT2)
inactive: saracatinib 0.058 | sotrastaurin -0.137 | alvocidib -0.166 | Tubastatin A 0.013 | [1] -0.102 | defactinib -0.297 | rucaparib 0.066 | [2] -0.046 | encorafenib 0.027 | [3] -0.064 | [4] -0.009 | filanesib 0.071 | zotarolimus -0.078 | idasanutlin -0.215 | alisertib 0.266 | [5] -0.113 | gefitinib 0.039 | [6] -0.035 | lapatinib 0.047 | pictilisib 0.027

PSMD14 (UniProt O00487)
inactive: saracatinib -0.055 | sotrastaurin -0.076 | alvocidib 0.067 | Tubastatin A 0.044 | [1] 0.019 | defactinib 0.062 | rucaparib 0.017 | [2] 0.078 | encorafenib 0.066 | [3] 0.014 | [4] -0.011 | filanesib -0.018 | zotarolimus 0.012 | idasanutlin -0.003 | alisertib -0.046 | [5] -0.074 | gefitinib -0.018 | [6] -0.052 | lapatinib 0.086 | pictilisib -0.021

PUS3 (UniProt Q9BZE2)
inactive: saracatinib 0.054 | sotrastaurin -0.084 | alvocidib -0.023 | Tubastatin A 0.023 | [1] -0.097 | defactinib -0.074 | rucaparib -0.131 | [2] -0.036 | encorafenib 0.03 | [3] -0.002 | [4] -0.052 | filanesib -0.121 | zotarolimus -0.015 | idasanutlin -0.087 | alisertib -0.015 | [5] 0.015 | gefitinib -0.071 | [6] 0.061 | lapatinib -0.024 | pictilisib 0.038

PSMB1 (UniProt P20618)
inactive: saracatinib -0.023 | sotrastaurin 0.002 | alvocidib 0.033 | Tubastatin A -0.021 | [1] -0.015 | defactinib 0.032 | rucaparib 0.049 | [2] 0.012 | encorafenib 0.01 | [3] -0.004 | [4] 0.016 | filanesib 0.04 | zotarolimus -0.043 | idasanutlin 0.015 | alisertib -0.017 | [5] 0.005 | gefitinib -0.018 | [6] -0.03 | lapatinib 0.019 | pictilisib -0.073

PSME3 isoform 2 (UniProt P61289)
inactive: saracatinib 0.036 | sotrastaurin 0.014 | alvocidib 0.023 | Tubastatin A -0.041 | [1] -0.045 | defactinib 0.004 | rucaparib -0.04 | [2] -0.021 | encorafenib -0.018 | [3] 0.055 | [4] -0.002 | filanesib -0.042 | zotarolimus -0.028 | idasanutlin 0 | alisertib -0.055 | [5] -0.05 | gefitinib -0.003 | [6] 0.065 | lapatinib -0.008 | pictilisib -0.02

PSMG1 (UniProt O95456)
inactive: saracatinib 0.078 | sotrastaurin -0.005 | alvocidib 0.004 | Tubastatin A -0.072 | [1] -0.026 | defactinib -0.003 | rucaparib -0.032 | [2] -0.015 | encorafenib -0.019 | [3] 0.041 | [4] 0.02 | filanesib -0.055 | zotarolimus -0.029 | idasanutlin -0.018 | alisertib -0.099 | [5] -0.031 | gefitinib -0.01 | [6] -0.028 | lapatinib 0.007 | pictilisib -0.017

PSMB2 (UniProt P49721)
inactive: saracatinib -0.006 | sotrastaurin -0.027 | alvocidib 0.046 | Tubastatin A -0.026 | [1] -0.011 | defactinib 0.09 | rucaparib 0.001 | [2] -0.007 | encorafenib 0.027 | [3] 0.007 | [4] 0.109 | filanesib 0.05 | zotarolimus -0.015 | idasanutlin -0.006 | alisertib -0.078 | [5] -0.077 | gefitinib -0.026 | [6] 0 | lapatinib 0.049 | pictilisib -0.076

PTGS1 isoform 6 (UniProt P23219)
inactive: saracatinib -0.057 | sotrastaurin 0.011 | alvocidib -0.035 | Tubastatin A 0.011 | [1] -0.049 | defactinib -0.033 | rucaparib -0.102 | [2] -0.06 | encorafenib 0.027 | [3] -0.057 | [4] -0.025 | filanesib -0.012 | zotarolimus 0.067 | idasanutlin -0.12 | alisertib 0.192 | [5] 0.024 | gefitinib -0.024 | [6] -0.07 | lapatinib -0.027 | pictilisib 0.017

PSMB5 (UniProt P28074)
inactive: saracatinib 0.025 | sotrastaurin -0.032 | alvocidib 0.061 | Tubastatin A -0.02 | [1] 0.013 | defactinib 0.048 | rucaparib 0.019 | [2] -0.015 | encorafenib 0.011 | [3] 0.041 | [4] 0.038 | filanesib -0.017 | zotarolimus -0.02 | idasanutlin 0.014 | alisertib -0.068 | [5] -0.047 | gefitinib -0.041 | [6] -0.017 | lapatinib 0.079 | pictilisib -0.036

PSMA4 (UniProt P25789)
inactive: saracatinib 0.002 | sotrastaurin 0.004 | alvocidib 0.081 | Tubastatin A -0.034 | [1] -0.004 | defactinib 0.074 | rucaparib -0.006 | [2] -0.016 | encorafenib 0.025 | [3] 0.02 | [4] -0.015 | filanesib 0.04 | zotarolimus -0.028 | idasanutlin 0.006 | alisertib -0.089 | [5] -0.023 | gefitinib -0.033 | [6] -0.002 | lapatinib 0.03 | pictilisib -0.019

Random excerpt: 2 entries already listed, in no set order.
PTGS1 isoform 6 (UniProt P23219)
inactive: saracatinib -0.057 | sotrastaurin 0.011 | alvocidib -0.035 | Tubastatin A 0.011 | [1] -0.049 | defactinib -0.033 | rucaparib -0.102 | [2] -0.06 | encorafenib 0.027 | [3] -0.057 | [4] -0.025 | filanesib -0.012 | zotarolimus 0.067 | idasanutlin -0.12 | alisertib 0.192 | [5] 0.024 | gefitinib -0.024 | [6] -0.07 | lapatinib -0.027 | pictilisib 0.017

PSMA4 (UniProt P25789)
inactive: saracatinib 0.002 | sotrastaurin 0.004 | alvocidib 0.081 | Tubastatin A -0.034 | [1] -0.004 | defactinib 0.074 | rucaparib -0.006 | [2] -0.016 | encorafenib 0.025 | [3] 0.02 | [4] -0.015 | filanesib 0.04 | zotarolimus -0.028 | idasanutlin 0.006 | alisertib -0.089 | [5] -0.023 | gefitinib -0.033 | [6] -0.002 | lapatinib 0.03 | pictilisib -0.019

Carrying on:

PZP (UniProt P20742)
inactive: saracatinib 0.263 | sotrastaurin 0.069 | alvocidib 0.034 | Tubastatin A -0.119 | [1] 0.063 | defactinib -0.063 | rucaparib -0.162 | [2] 0.022 | encorafenib -0.02 | [3] 0.121 | [4] -0.096 | filanesib 0.081 | zotarolimus -0.132 | idasanutlin 0.074 | alisertib -0.121 | [5] -0.002 | gefitinib -0.164 | [6] 0.118 | lapatinib -0.03 | pictilisib -0.064

PYURF (UniProt Q96I23)
inactive: saracatinib 0.093 | sotrastaurin -0.07 | alvocidib 0.112 | Tubastatin A -0.026 | [1] 0.032 | defactinib 0.027 | rucaparib 0.015 | [2] -0.126 | encorafenib -0.056 | [3] 0.029 | [4] -0.014 | filanesib -0.12 | zotarolimus -0.048 | idasanutlin 0.035 | alisertib -0.057 | [5] -0.121 | gefitinib -0.05 | [6] 0.023 | lapatinib -0.077 | pictilisib 0.037

PUS7L (UniProt Q9H0K6)
inactive: saracatinib -0.012 | sotrastaurin -0.016 | alvocidib -0.028 | Tubastatin A 0.034 | [1] -0.033 | defactinib -0.038 | rucaparib -0.001 | [2] -0.049 | encorafenib 0.045 | [3] 0.01 | [4] 0.02 | filanesib 0.01 | zotarolimus 0.001 | idasanutlin 0.044 | alisertib -0.03 | [5] 0.038 | gefitinib 0.026 | [6] 0.024 | lapatinib 0.037 | pictilisib -0.047

PSMG2 (UniProt Q969U7)
inactive: saracatinib 0.021 | sotrastaurin 0.007 | alvocidib -0.03 | Tubastatin A 0.001 | [1] 0.121 | defactinib -0.002 | rucaparib -0.042 | [2] -0.038 | encorafenib -0.011 | [3] 0.019 | [4] -0.081 | filanesib -0.045 | zotarolimus 0.017 | idasanutlin -0.079 | alisertib -0.055 | [5] 0.016 | gefitinib -0.009 | [6] 0.059 | lapatinib -0.013 | pictilisib 0.072

PWP2 (UniProt Q15269)
inactive: saracatinib -0.014 | sotrastaurin 0.002 | alvocidib 0.146 | Tubastatin A 0 | [1] -0.024 | defactinib 0.274 | rucaparib 0.279 | [2] 0.044 | encorafenib 0.222 | [3] -0.015 | [4] -0.048 | filanesib 0.226 | zotarolimus 0.076 | idasanutlin 0.082 | alisertib -0.095 | [5] 0.137 | gefitinib -0.049 | [6] -0.023 | lapatinib 0.031 | pictilisib 0.017

QTRT1 (UniProt Q9BXR0)
inactive: saracatinib 0.026 | sotrastaurin 0.005 | alvocidib -0.081 | Tubastatin A 0 | [1] -0.03 | defactinib 0.003 | rucaparib 0.006 | [2] -0.059 | encorafenib -0.029 | [3] 0.009 | [4] 0.031 | filanesib -0.036 | zotarolimus 0.024 | idasanutlin -0.005 | alisertib -0.004 | [5] -0.014 | gefitinib -0.002 | [6] 0.029 | lapatinib -0.008 | pictilisib 0.033

Source: the supplement of paper PMC10849652
